Results: the supplement of paper PMC10849652
The list shows a part of the results.

Amino acid sequences for entries named in this document (tags omitted). A change or cut given only in a name is not applied to a line headed by its entry.
UniProt P02774: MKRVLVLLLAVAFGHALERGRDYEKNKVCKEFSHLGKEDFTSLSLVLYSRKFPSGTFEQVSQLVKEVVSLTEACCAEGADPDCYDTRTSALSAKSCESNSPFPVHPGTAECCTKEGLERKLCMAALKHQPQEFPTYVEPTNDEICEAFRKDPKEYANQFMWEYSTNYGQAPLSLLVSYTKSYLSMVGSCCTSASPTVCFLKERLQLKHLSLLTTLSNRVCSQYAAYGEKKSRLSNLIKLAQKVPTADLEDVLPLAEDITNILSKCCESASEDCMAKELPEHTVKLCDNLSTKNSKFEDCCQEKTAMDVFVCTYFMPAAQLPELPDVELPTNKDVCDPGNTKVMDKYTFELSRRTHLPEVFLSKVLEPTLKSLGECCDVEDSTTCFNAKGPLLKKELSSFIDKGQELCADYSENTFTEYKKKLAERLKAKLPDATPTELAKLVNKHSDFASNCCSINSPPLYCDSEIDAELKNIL
UniProt O75879: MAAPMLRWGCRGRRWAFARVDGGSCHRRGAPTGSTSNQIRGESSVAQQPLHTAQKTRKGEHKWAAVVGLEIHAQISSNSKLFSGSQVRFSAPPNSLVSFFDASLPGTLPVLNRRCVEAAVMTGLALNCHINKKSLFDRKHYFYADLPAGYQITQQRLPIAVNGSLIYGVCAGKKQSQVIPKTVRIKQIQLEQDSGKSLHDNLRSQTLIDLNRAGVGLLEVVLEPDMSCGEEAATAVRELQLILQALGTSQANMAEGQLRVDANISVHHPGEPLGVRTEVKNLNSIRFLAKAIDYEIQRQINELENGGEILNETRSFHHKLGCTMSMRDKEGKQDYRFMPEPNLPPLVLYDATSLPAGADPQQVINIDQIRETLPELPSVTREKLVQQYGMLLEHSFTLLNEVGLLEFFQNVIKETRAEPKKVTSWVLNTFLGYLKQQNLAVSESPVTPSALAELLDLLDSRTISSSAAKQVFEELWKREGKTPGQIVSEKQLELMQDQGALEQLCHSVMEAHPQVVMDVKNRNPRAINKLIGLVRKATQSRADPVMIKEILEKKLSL
UniProt Q13283, whole entry, looked up: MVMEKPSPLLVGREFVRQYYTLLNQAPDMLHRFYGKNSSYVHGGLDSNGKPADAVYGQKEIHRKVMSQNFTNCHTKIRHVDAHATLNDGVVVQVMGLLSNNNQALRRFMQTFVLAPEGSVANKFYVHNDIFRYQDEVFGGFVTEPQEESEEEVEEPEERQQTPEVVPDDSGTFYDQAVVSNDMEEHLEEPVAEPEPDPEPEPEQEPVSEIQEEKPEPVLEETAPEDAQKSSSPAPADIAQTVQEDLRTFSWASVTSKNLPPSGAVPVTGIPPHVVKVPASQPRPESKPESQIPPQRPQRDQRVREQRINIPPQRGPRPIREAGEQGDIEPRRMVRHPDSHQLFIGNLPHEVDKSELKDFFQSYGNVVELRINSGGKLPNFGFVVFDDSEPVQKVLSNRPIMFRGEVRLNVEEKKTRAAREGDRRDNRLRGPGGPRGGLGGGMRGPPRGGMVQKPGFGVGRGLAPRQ
UniProt P27469: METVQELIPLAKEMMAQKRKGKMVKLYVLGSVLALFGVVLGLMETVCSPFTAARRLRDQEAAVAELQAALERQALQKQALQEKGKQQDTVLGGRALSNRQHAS
UniProt Q06547, whole entry, looked up: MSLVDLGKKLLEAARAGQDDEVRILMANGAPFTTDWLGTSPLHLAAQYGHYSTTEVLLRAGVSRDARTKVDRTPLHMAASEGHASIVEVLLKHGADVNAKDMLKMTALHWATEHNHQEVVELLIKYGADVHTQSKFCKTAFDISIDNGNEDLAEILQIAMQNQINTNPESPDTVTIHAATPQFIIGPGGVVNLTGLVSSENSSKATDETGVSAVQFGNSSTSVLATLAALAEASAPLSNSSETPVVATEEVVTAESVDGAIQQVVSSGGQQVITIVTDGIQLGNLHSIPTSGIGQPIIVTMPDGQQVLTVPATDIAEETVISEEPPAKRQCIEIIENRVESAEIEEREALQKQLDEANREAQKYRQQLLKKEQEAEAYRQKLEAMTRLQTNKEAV
UniProt Q6ZNW5: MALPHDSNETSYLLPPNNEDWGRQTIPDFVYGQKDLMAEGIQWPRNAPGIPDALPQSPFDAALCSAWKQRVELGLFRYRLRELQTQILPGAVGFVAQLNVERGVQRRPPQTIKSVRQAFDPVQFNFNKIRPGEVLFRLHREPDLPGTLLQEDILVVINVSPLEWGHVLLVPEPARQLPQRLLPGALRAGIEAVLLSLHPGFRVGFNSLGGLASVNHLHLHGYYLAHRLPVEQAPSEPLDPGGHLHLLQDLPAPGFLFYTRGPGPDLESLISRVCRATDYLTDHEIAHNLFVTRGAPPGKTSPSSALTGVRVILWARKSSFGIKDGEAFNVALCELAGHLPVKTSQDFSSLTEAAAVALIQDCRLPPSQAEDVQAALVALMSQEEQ
UniProt Q9NWZ8: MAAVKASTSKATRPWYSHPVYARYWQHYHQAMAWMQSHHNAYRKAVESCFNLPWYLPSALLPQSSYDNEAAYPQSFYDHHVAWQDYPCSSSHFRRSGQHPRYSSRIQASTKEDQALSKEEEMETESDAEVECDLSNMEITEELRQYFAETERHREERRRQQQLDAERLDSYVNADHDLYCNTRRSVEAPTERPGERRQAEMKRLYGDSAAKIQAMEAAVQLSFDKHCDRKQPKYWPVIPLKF
UniProt P04406: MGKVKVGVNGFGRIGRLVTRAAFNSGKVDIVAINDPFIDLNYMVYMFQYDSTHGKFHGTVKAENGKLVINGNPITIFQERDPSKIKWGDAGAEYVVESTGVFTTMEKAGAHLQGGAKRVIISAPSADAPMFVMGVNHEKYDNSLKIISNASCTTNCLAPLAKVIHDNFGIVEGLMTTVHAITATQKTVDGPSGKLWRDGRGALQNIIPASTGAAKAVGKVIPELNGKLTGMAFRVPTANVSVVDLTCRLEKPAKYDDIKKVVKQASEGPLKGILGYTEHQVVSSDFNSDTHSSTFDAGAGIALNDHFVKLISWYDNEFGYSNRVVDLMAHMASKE
UniProt Q9UPW0: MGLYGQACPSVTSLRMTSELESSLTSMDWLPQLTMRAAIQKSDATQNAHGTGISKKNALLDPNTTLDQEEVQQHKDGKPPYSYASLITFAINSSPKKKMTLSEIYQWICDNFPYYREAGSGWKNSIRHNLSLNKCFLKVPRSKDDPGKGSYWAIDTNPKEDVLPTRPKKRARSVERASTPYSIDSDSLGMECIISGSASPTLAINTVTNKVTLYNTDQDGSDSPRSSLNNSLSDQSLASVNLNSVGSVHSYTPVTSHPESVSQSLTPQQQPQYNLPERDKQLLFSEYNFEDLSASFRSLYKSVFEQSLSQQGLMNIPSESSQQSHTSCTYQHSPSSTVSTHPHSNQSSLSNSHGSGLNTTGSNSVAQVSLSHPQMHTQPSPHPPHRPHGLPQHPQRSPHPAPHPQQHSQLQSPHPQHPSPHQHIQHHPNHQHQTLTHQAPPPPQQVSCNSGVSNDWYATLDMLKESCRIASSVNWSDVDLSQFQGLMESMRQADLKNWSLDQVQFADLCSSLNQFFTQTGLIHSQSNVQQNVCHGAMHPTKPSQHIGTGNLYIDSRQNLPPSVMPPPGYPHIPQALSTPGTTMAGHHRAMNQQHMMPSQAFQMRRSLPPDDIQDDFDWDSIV
UniProt O94915: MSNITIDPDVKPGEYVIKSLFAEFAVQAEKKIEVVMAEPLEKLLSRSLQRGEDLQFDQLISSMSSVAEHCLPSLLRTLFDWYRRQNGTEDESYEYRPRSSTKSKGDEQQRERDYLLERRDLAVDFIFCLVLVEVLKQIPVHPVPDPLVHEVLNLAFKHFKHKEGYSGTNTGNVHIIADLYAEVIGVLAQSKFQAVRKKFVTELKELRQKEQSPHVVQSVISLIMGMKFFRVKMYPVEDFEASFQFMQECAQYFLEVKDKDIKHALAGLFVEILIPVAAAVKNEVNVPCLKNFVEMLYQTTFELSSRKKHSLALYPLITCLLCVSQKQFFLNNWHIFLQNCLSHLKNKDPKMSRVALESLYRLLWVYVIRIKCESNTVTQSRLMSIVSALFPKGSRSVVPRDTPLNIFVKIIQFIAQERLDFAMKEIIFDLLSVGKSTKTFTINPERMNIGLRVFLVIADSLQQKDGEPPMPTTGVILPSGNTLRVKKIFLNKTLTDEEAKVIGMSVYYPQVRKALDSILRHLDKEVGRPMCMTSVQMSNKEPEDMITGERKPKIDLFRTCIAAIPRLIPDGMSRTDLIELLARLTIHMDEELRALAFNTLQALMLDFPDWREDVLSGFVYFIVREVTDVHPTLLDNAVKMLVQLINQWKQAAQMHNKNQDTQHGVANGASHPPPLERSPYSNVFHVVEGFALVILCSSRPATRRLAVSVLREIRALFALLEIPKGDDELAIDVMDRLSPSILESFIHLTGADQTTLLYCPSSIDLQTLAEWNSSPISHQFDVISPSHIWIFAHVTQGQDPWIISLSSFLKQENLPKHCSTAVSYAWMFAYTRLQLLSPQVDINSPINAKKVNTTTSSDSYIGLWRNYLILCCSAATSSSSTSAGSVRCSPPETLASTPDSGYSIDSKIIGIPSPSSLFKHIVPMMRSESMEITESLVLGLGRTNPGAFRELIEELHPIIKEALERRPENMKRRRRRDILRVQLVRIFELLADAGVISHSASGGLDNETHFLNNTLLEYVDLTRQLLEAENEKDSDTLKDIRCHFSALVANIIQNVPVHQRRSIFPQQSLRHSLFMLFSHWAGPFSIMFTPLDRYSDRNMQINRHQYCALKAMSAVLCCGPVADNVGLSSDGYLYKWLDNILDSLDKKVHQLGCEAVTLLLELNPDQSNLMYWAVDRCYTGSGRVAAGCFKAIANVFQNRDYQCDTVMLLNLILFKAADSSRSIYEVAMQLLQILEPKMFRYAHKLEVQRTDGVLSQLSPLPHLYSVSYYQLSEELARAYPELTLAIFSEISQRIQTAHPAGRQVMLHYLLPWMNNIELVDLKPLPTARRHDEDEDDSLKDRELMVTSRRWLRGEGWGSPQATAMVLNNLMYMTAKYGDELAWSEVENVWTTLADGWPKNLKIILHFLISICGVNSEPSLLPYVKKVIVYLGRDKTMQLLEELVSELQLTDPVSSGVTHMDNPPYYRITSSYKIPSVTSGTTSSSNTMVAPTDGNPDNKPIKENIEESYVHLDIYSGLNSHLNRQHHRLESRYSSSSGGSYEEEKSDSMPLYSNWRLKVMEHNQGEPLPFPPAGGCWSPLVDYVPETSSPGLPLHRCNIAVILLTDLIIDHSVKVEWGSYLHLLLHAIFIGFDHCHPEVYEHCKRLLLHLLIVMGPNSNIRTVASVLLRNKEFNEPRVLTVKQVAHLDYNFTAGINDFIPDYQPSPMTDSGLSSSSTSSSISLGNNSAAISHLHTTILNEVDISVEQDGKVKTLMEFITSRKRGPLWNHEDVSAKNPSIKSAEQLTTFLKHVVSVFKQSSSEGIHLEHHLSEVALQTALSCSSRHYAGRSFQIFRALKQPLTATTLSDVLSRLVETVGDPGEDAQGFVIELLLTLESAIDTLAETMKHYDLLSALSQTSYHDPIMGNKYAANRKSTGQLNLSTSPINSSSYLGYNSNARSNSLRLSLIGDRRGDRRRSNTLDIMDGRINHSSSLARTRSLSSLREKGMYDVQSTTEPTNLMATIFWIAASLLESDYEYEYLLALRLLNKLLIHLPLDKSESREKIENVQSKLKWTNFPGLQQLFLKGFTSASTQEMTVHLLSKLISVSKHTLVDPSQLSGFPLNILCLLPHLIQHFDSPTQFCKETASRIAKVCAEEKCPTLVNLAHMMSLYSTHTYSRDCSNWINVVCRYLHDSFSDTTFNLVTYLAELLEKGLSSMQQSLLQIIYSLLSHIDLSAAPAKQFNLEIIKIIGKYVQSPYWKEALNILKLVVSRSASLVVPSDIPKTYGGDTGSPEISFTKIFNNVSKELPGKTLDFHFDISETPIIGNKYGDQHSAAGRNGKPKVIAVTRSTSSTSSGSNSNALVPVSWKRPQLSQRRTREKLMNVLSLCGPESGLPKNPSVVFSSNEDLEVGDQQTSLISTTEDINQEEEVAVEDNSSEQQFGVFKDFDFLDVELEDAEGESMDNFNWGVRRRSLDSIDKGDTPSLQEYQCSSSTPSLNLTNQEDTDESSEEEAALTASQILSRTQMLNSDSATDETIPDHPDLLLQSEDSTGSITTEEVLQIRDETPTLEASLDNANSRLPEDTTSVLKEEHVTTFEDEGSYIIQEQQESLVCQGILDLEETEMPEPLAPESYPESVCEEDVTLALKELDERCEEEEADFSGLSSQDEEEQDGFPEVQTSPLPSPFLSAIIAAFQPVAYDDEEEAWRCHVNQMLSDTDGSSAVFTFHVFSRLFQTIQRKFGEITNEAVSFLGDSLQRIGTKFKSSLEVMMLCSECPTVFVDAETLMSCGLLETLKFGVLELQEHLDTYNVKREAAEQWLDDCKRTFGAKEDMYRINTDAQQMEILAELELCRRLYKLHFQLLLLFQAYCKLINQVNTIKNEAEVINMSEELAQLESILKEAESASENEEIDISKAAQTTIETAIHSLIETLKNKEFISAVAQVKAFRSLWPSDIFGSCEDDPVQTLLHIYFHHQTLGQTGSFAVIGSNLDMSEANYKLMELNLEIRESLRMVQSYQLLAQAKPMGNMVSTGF

Tests used:
Assay in all cases: log2 fold change, soluble protein after heating vs DMSO (PISA); higher = thermal stabilisation; K562 cells, 10 uM, 30 min; active = over 0.2 and 3.5 SD of the protein, either way, in both replicates (recomputed)
[1] = compound: NC(=O)Nc1cc(-c2cccc(F)c2)sc1C(=O)N[C@H]1CCCNC1
Procedure, shortened: (§1)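 K562 cells at 2×10^6 cells/mL were treated with 10 μM compound for 30 min. Aliquots were heated for 3 min across 48°C-58°C, pooled, and extracted in PBS with 0.5% NP-40 at 4°C; soluble protein was the supernatant after 21,000xg for 90 min. Soluble protein was quantified by TMTpro 16plex LC-MS/MS with channel sums equalised, and reported as log2 fold change in thermal stability against DMSO controls, with values from duplicates.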

[2] = compound: NCC(=O)Nc1ccc(-n2nc(C(F)(F)F)cc2-c2ccc3c(ccc4ccccc43)c2)cc1
Procedure, shortened: as §1

entinostat = compound: Nc1ccccc1NC(=O)c1ccc(CNC(=O)OCc2cccnc2)cc1 [entinostat]
Procedure, shortened: as §1

[3] = compound: O=C1NC(=O)C(c2cnc3ccccn23)=C1c1cn2c3c(cc(F)cc13)CN(C(=O)N1CCCCC1)CC2
Procedure, shortened: as §1

[4] = compound: NC(=O)c1cnc(N[C@@H]2CCCC[C@@H]2N)nc1Nc1cccc(-n2nccn2)c1
Procedure, shortened: as §1

vorinostat = compound: O=C(CCCCCCC(=O)Nc1ccccc1)NO [vorinostat]
Procedure, shortened: as §1

citarinostat = compound: O=C(CCCCCCNC(=O)c1cnc(N(c2ccccc2)c2ccccc2Cl)nc1)NO [citarinostat]
Procedure, shortened: as §1

[5] = compound: c1cc(OCCN2CCCCC2)cc(-c2n[nH]c3ccc(-c4nnc[nH]4)cc23)c1
Procedure, shortened: as §1

[6] = compound: NC1(c2ccc(-c3nc4ccn5c(=O)[nH]nc5c4cc3-c3ccccc3)cc2)CCC1
Procedure, shortened: as §1

silmitasertib = compound: O=C(O)c1ccc2c(c1)nc(Nc1cccc(Cl)c1)c1ccncc12 [silmitasertib]
Procedure, shortened: as §1

Measured: log2 fold change

FZD1 (UniProt Q9UP38)
inactive: [1] -0.195 | [2] 0.111 | entinostat -0.125 | [3] -0.222

GC isoform 3 (UniProt P02774)
inactive: [1] 0.214 | [4] 0.222 | [2] 0.17 | entinostat -0.03 | vorinostat -0.135 | citarinostat 0.037 | [3] 0.025 | [5] 0.425

GATAD2A isoform 3 (UniProt Q86YP4)
inactive: [1] -0.009 | [4] -0.282 | [6] -0.05 | [2] 0.043 | entinostat -0.002 | vorinostat -0.042 | citarinostat -0.048 | silmitasertib 0.12 | [3] -0.045 | [5] -0.002

GDE1 (UniProt Q9NZC3)
inactive: [1] -0.001 | [4] 0.058 | [6] 0.094 | [2] -0.01 | entinostat -0.065 | citarinostat 0.024 | silmitasertib -0.086 | [3] -0.008 | [5] 0.032

GGA2 (UniProt Q9UJY4)
inactive: [1] 0.02 | [4] -0.02 | [6] -0.208 | [2] 0.01 | entinostat 0.032 | citarinostat 0.042 | silmitasertib 0.033 | [3] 0.152 | [5] -0.034

GATB (UniProt O75879)
inactive: [1] -0.297 | [4] 0.008 | [6] -0.258 | [2] -0.182 | entinostat 0.089 | vorinostat -0.134 | silmitasertib -0.018 | [3] -0.221

FPGT (UniProt O14772)
inactive: [1] 0.018 | [4] -0.018 | [6] -0.088 | [2] -0.068 | entinostat -0.029 | vorinostat 0.032 | citarinostat 0.03 | silmitasertib -0.019 | [3] -0.081 | [5] -0.051

G3BP1 (UniProt Q13283)
inactive: [1] -0.02 | [4] 0.028 | [6] 0.253 | [2] 0.017 | entinostat -0.011 | vorinostat 0.02 | citarinostat -0.069 | silmitasertib 0.142 | [3] 0.121 | [5] -0.169

FUS (UniProt P35637)
inactive: [1] 0.012 | [4] 0.086 | [6] 0.199 | [2] 0.075 | entinostat -0.093 | vorinostat 0.012 | citarinostat -0.094 | silmitasertib 0.06 | [3] 0.148 | [5] -0.091

FUT11 (UniProt Q495W5)
inactive: [1] -0.006 | [4] -0.017 | [6] -0.046 | [2] 0.079 | entinostat 0.119 | vorinostat -0.077 | silmitasertib -0.054 | [3] 0.061

GCFC2 isoform 3 (UniProt P16383)
inactive: [2] -0.03

GDF15 (UniProt Q99988)
inactive: [4] 0.063 | [6] 0.353 | [2] 0.139 | citarinostat 0.087 | silmitasertib -0.053 | [5] -0.407

GFOD2 (UniProt Q3B7J2)
inactive: [3] -0.283

G0S2 (UniProt P27469)
inactive: [6] 0.102 | silmitasertib -0.141

GALNT3 (UniProt Q14435)
inactive: vorinostat -0.03

GDI2 (UniProt Q5SX86)
inactive: [3] 0.045

GANAB (UniProt Q14697)
inactive: [6] 0.398 | citarinostat -1.28 | silmitasertib -0.211 | [5] -0.028

G6PC3 (UniProt Q9BUM1)
inactive: [6] -0.019 | [2] -0.229 | citarinostat 0.024 | silmitasertib 0.162 | [5] -0.182

FRMPD3 (UniProt Q5JV73)
inactive: [2] -0.302 | citarinostat 0.02 | [3] -0.331 | [5] 0.036

GEMIN7 (UniProt Q9H840)
inactive: [6] 0.041 | vorinostat -0.019 | silmitasertib 0.145 | [3] -0.064

Pulled one by one from the entries so far (three):
GEMIN7 (UniProt Q9H840)
inactive: [6] 0.041 | vorinostat -0.019 | silmitasertib 0.145 | [3] -0.064

GANAB (UniProt Q14697)
inactive: [6] 0.398 | citarinostat -1.28 | silmitasertib -0.211 | [5] -0.028

G6PC3 (UniProt Q9BUM1)
inactive: [6] -0.019 | [2] -0.229 | citarinostat 0.024 | silmitasertib 0.162 | [5] -0.182

Next part

GABPB1 isoform 3 (UniProt Q06547)
inactive: [6] -0.382 | [2] -0.176 | vorinostat 0.035 | silmitasertib -0.06

GDPGP1 (UniProt Q6ZNW5)
inactive: [4] -0.115 | [6] -0.091 | silmitasertib -0.027

GEMIN8 (UniProt Q9NWZ8)
inactive: [4] 0.01 | [2] 0.054 | citarinostat 0.174 | [3] 0.223 | [5] -0.354

GFAP isoform 2 (UniProt P14136)
inactive: [6] -0.099 | vorinostat 0.389 | citarinostat -0.113 | silmitasertib -0.123 | [5] 0.219

GAPDH isoform 2 (UniProt P04406)
inactive: [6] -0.189 | silmitasertib 0.071

GFOD1 (UniProt Q9NXC2)
inactive: vorinostat 0 | [3] -0.43

FOXJ3 (UniProt Q9UPW0)
inactive: [4] -0.156 | [6] 0.051 | [2] 0.038 | citarinostat -0.009 | silmitasertib 0.096 | [3] 0.009 | [5] -0.047

GATC (UniProt O43716)
inactive: [4] 0.058 | [6] -0.069 | [2] 0.152 | vorinostat -0.086 | citarinostat -0.089 | silmitasertib 0.043 | [3] -0.184 | [5] 0.122

GBE1 (UniProt Q04446)
inactive: [4] -0.11 | [6] -0.214 | [2] -0.07 | citarinostat 0.09 | silmitasertib 0.031 | [3] -0.049 | [5] -0.057

GDPD3 (UniProt Q7L5L3)
inactive: [4] -0.203 | [2] 0.073 | vorinostat -0.034 | [3] -0.199

GFM2 (UniProt Q969S9)
inactive: [6] 0.235 | citarinostat -0.061 | silmitasertib 0.02 | [5] -0.158

GAL (UniProt P22466)
inactive: [2] -0.126

FOXRED2 (UniProt Q8IWF2)
inactive: [4] 0.062 | [6] -0.045 | [2] 0.029 | citarinostat 0.011 | silmitasertib 0.214 | [3] -0.009 | [5] -0.105

GAGE1 (UniProt Q13065)
inactive: [6] -0.234 | citarinostat 0.263 | silmitasertib 0.035 | [5] 0.032

GALNT7 (UniProt H0YAH3)
inactive: [2] 0.01 | citarinostat -0.057 | [3] 0.015 | [5] 0.004

FUT10 isoform 2 (UniProt Q6P4F1)
inactive: vorinostat 0.083 | [3] 0.158

GCC1 (UniProt Q96CN9)
inactive: vorinostat -0.038 | [3] 0.184

FRMD8 (UniProt Q9BZ67)
inactive: [4] -0.015 | citarinostat 0 | [3] -0.149 | [5] 0.091

FOXJ2 (UniProt Q9P0K8)
inactive: [2] -0.036

GGACT (UniProt Q9BVM4)
inactive: [6] -0.159 | citarinostat -0.178 | silmitasertib -0.024 | [5] -0.103

GDPD5 (UniProt Q8WTR4)
inactive: citarinostat -0.05 | [3] 0.021 | [5] 0.116

FRYL isoform 2 (UniProt O94915)
inactive: [4] 0.068 | [2] -0.102 | [3] -0.149

FYTTD1 (UniProt Q96QD9)
inactive: [4] -0.372 | vorinostat -0.024 | citarinostat -0.188 | [3] -0.005 | [5] -0.16
